Results deposited as PubChem BioAssay AID1159584 (Peter MacCallum Cancer Centre, 2016).
Test: 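Knock-downs that harm CDH1-null cells more than parental MCF10A cells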 (primary screen). Cell system: human MCF10A breast epithelial cells, parental and CDH1-null. Knock-down reagent: siRNA against human genes. Measured: 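Cell viability by CellTiter-Glo ATP luminescence, each line scaled to the mean of mock wells across plates, then CDH1-null over parental ratio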. Reading the numbers: CDH1-null / parental viability ratio: higher = CDH1-null cells survive relatively better than parental; CDH1-null viability vs mock: higher = more viable CDH1-null cells; parental viability vs mock: higher = more viable parental cells.
In all, the deposit lists about 18,000 reagents; shown is a random part of them. Not stated in the record: the amount of reagent, the time to read-out.

| gene symbol | CDH1-null / parental viability ratio | CDH1-null viability vs mock (fraction of mock) | parental viability vs mock (fraction of mock) |
| --- | --- | --- | --- |
| TRIB3 | 1.21 | 0.92 | 0.76 |
| FN1 | 0.84 | 0.84 | 1 |
| RBM8A | 1.17 | 0.34 | 0.29 |
| FGFR3 | 0.68 | 0.5 | 0.73 |
| ZNF148 | 0.85 | 0.68 | 0.8 |
| HOXD8 | 0.96 | 0.78 | 0.81 |
| SLCO1B7 | 0.78 | 0.99 | 1.27 |
| SIN3A | 0.83 | 0.78 | 0.94 |
| EDEM1 | 1.04 | 1.02 | 0.98 |
| ADRA1D | 1.44 | 0.92 | 0.64 |
| PHF21B | 0.98 | 0.96 | 0.98 |
| ROBO3 | 1.04 | 0.73 | 0.7 |
| GFRAL | 0.9 | 0.69 | 0.77 |
| UGGT2 | 1.2 | 1.04 | 0.87 |
| ZAP70 | 0.92 | 0.7 | 0.76 |
| PUF60 | 1.5 | 0.72 | 0.48 |
| SPATA25 | 1.25 | 0.95 | 0.76 |
| TCP11 | 1.23 | 0.9 | 0.73 |
| ZSCAN32 | 1.18 | 0.59 | 0.5 |
| H1-4 | 0.86 | 0.59 | 0.69 |
| PFN1 | 1.22 | 0.55 | 0.45 |
| TAF5 | 0.96 | 0.74 | 0.77 |
| KICS2 | 0.72 | 0.67 | 0.93 |
| MBLAC2 | 1.4 | 0.74 | 0.53 |
| NSUN5P2 | 0.91 | 0.62 | 0.68 |
| GFER | 1.02 | 0.56 | 0.55 |
| TTF1 | 1.12 | 0.72 | 0.64 |
| TSACC | 1.07 | 0.64 | 0.6 |
| CDSN | 0.91 | 0.74 | 0.81 |
| DMRT3 | 0.81 | 0.76 | 0.94 |
| D2HGDH | 1.41 | 0.62 | 0.44 |
| FGL1 | 0.99 | 0.81 | 0.82 |
| CDCP2 | 0.94 | 0.58 | 0.62 |
| NAT14 | 0.93 | 0.54 | 0.58 |
| SCAMP3 | 0.67 | 0.62 | 0.92 |
| NFE2L2 | 1.14 | 0.98 | 0.86 |
| TMEM184A | 0.98 | 0.86 | 0.88 |
| GRHPR | 1.35 | 0.7 | 0.52 |
| SLC24A4 | 0.97 | 0.95 | 0.98 |
| STON1 | 1.13 | 0.71 | 0.63 |
| PIGL | 0.72 | 0.47 | 0.65 |
| AZGP1 | 1.81 | 0.76 | 0.42 |
| TSSK2 | 1.07 | 1.01 | 0.94 |
| GUCA1C | 0.81 | 0.88 | 1.08 |
| PER3 | 0.98 | 0.92 | 0.94 |
| TAF1A | 1.14 | 0.8 | 0.7 |
